Measured values published in the supplement of paper PMC11150407.
Where “and” joins values, the source holds several entries; their conditions need not be identical. Equal values may be shown once. Among all 2,100 compounds or so, about 180 (8.6%) showed an effect of 50% or more. The list shows a part of the results.

These compounds were tested on MOLM1 and UCSD/AML1 (averaged) (assay: cell viability relative to DMSO control (POC); higher = less growth inhibition). Settings: 1 µM; 72 h.
Method: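 Primary viability screen in the 3q26 EVI1-high AML cell lines MOLM1 and UCSD/AML1 (1.5e3 cells/well, 384-well), compounds at 1 uM for 72 h. ATP CellTiter-Glo read-out given as percent of viable cells over DMSO control (POC), averaged over duplicates. DMSO was the negative control and 5 uM etoposide the positive control. This mapping covers the MicroSource Spectrum and Selleck anticancer libraries (drug names).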

SMILES | cell viability
Cn1nnc2c(C(N)=O)ncn2c1=O [Temozolomide] | 93.3%
OC(CCN1CCCC1)(c1ccccc1)C1CCCCC1 (centres undefined) | 107%
CC(=O)/C(=C\c1ccccc1)CC(=O)O | 118%
CC(C)=CCC[C@@H](C)[C@@H]1CC[C@]2(C)C3=C(CC[C@@]12C)[C@@]1(C)CC[C@H](O)C(C)(C)[C@@H]1CC3 | 97.6%
CC(C)NCC(O)COc1cccc2[nH]ccc12 (centres undefined) | 105%
CC(CN(C)C)CN1c2ccccc2CCc2ccccc21 (centres undefined) | 95.5%
CC1=C(/C=C/C(C)=C/C=C/C(C)=C/C=C/C=C(C)/C=C/C=C(C)/C=C/C(=O)[C@]2(C)C[C@@H](O)CC2(C)C)C(C)(C)C[C@H](O)C1 | 99.8%
C[C@H]1[C@H]2CC[C@H]3[C@@H]4CC=C5C[C@@H](N(C)C)CC[C@]5(C)[C@H]4CC[C@]23CN1C | 102%
C[N+](C)(C)C[C@H](O)CC(=O)[O-] | 96.9%
NCCc1ccc(O)c(O)c1 | 89.3% and 104%
O=C(/C=C/c1cccnc1)NCCCCC1CCN(C(=O)c2ccccc2)CC1 | 12%
CC(C)c1c(O)ccc2c1CCC1[C@@](C)(C=O)CCC[C@]21C (some centres undefined) | 96.4%
CC1(C)O[C@@H]2C[C@H]3[C@@H]4C[C@H](F)C5=CC(=O)C=C[C@]5(C)[C@H]4[C@@H](O)C[C@]3(C)[C@]2(C(=O)CO)O1 | 76.6%
Cn1cnc2c(F)c(Nc3ccc(Br)cc3Cl)c(C(=O)NOCCO)cc21 [AZD6244 (Selumetinib)] | 15.5%
CN(Cc1cc(Br)cc(Br)c1N)C1CCCCC1 | 102%
C[C@H](CS)C(=O)N1CCC[C@H]1C(=O)O | 100%
C/C=C(\C)C(=O)O[C@@H]1c2c(ccc3ccc(=O)oc23)OC(C)(C)[C@@H]1OC(C)=O | 101%
C[C@]12CCC(=O)C=C1CC[C@@H]1[C@@H]2[C@@H](O)C[C@@]2(C)[C@H]1CC[C@]2(O)C(=O)COP(=O)(O)O | 93.2%
CC(=O)OCC(=O)[C@@]1(O)CC[C@H]2[C@@H]3CCC4=CC(=O)C=C[C@]4(C)[C@H]3[C@@H](O)C[C@@]21C | 75.2%
C=C[C@@]1(C)CC(=O)[C@@]2(O)[C@](C)(O1)[C@@H](O)[C@@H](O)C1C(C)(C)CC[C@H](O)[C@@]12C (some centres undefined) | 98.8%
CCC1(C)CC(=O)NC1=O (centres undefined) | 101%
COc1ccc(C(C)=O)c(OC)c1 | 91.5%

SMILES | cell viability
CC(NCCc1ccc(O)cc1)C(O)c1ccc(O)cc1 (centres undefined) | 103%
N#CC[C@H](C1CCCC1)n1cc(-c2ncnc3[nH]ccc23)cn1 | 73.1%
O=C1CC[C@]23/C=C/C(=O)NCCCCNCCCNC(=O)/C=C/c4ccc(c2c4)O[C@@H]3C1 | 97.1%
CCCc1nn(C)c2c(=O)[nH]c(-c3cc(S(=O)(=O)N4CCN(C)CC4)ccc3OCC)nc12 | 99.1%
CC(=O)O[C@@H]1CC2C(C)(C)[C@H](O)CC[C@]2(C)C2CC[C@@]3(C)[C@H](c4ccoc4)OC(=O)C4OC43[C@@]21C (stereo partly drawn) [alpha-DIHYDROGEDUNOL] | 123%
CCC(C)(C)C(=O)O[C@H]1C[C@@H](C)C=C2C=C[C@H](C)[C@H](CC[C@@H]3C[C@@H](O)CC(=O)O3)[C@H]21 | 67.5%
CCC(C)(C)C(=O)O[C@H]1C[C@@H](C)C=C2C=C[C@H](C)[C@H](CC[C@@H]3C[C@@H](O)CC(=O)O3)[C@H]21 [Simvastatin (Zocor)] | 69.1%
CCCCS(=N)(=O)CCC(N)C(=O)O (centres undefined) | 124%
CC(=O)Oc1ccc(C(c2ccc(OC(C)=O)cc2)c2ccccn2)cc1 | 97.4%
CC(=O)Oc1cc(C)c2c(c1C=O)Oc1c(c(C)c(OC(C)=O)c3c1C(OC(C)=O)OC3=O)OC2=O (centres undefined) | 106%
Nc1ccc(C(=O)O)c(O)c1 | 103%
O=C(O)c1ccccc1Nc1cccc(C(F)(F)F)c1 | 98.9%
OCCc1ccccc1 | 109%
CC(=O)Nc1ccc(S(=O)(=O)c2ccc(NC(C)=O)cc2)cc1 | 99.1%
O=C1O[C@H]([C@@H](O)CO)C(O)=C1O | 104%
Clc1ccc(C(c2ccccc2Cl)C(Cl)Cl)cc1 (centres undefined) | 103%
CN(C)CCOC(=O)C(c1ccccc1)C1(O)CCCC1 (centres undefined) | 101%
Nc1ccc(/N=N/c2ccccc2)c(N)n1 | 108%
NCCCS(=O)(=O)O | 90.7%
Cc1c(S(=O)(=O)O)oc2c1C(=O)C(=O)c1c-2ccc2c1CCCC2(C)C | 97.6%
Nc1nc(/C(=C/CC(=O)O)C(=O)N[C@@H]2C(=O)N3C(C(=O)O)=CCS[C@H]23)cs1 | 90%
Cc1ccc(Nc2nccc(N(C)c3ccc4c(C)n(C)nc4c3)n2)cc1S(N)(=O)=O [Pazopanib] | 60.1%

Retrieved one by one from the list above:
SMILES | cell viability
Clc1ccc(C(c2ccccc2Cl)C(Cl)Cl)cc1 (centres undefined) | 103%
O=C1CC[C@]23/C=C/C(=O)NCCCCNCCCNC(=O)/C=C/c4ccc(c2c4)O[C@@H]3C1 | 97.1%
NCCCS(=O)(=O)O | 90.7%
